# Measurements published in paper PMC7819943, “Rice protein-binding microarrays: a tool to detect cis-acting elements near promoter regions in rice”.
# By UniProt entry, the sequences of proteins in these tests, tags left out.
# UniProt Q0JBA9, entry or part of it: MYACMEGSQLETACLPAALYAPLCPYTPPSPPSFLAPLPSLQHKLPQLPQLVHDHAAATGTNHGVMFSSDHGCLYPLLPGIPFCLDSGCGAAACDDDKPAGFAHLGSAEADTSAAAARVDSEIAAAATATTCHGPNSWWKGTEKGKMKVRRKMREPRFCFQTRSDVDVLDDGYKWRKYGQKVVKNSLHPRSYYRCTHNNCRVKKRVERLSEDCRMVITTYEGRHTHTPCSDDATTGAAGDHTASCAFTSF
# Some of the results follow.
# Biological target: OsWRKY34 (Oryza sativa, UniProt Q0JBA9 1-250)
# Test: protein-binding microarray (RPBM); PBS, 2% BSA, 51.3 ng/ul salmon testes DNA, 50 uM zinc acetate, 200 nM TF, 25 C, 1 h; high values mean tight binding
# Conditions: protein: recombinant; tags: N-terminal polyhistidine and DsRed monomer fusion (pET32a); label: CyDye5-dUTP incorporated in the synthesized complementary strand; 3' TTTTT single-stranded linker to array surface; dsDNA, one strand shown
# Procedure, shortened: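 The binding signal is fluorescence intensity per array feature (arbitrary units). Readings came from an Axon 4000B scanner after a washed, 2% BSA-blocked, double-stranded custom Agilent array had been incubated for 1 h at 25 °C with 200 nM protein and 50 µM zinc acetate. The protein was a Ni–NTA-purified transcription factor fused N-terminally to polyhistidine and DsRed, expressed in E. coli BL21-CodonPlus.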
row,Sequence,binding signal
1,GATCTATGACATCTATGATACTGATTCCATGTTACCGTCACGGAGTCACCTAGTGCAG,8770 fluorescence intensity (a.u.)
2,GTTGCGGGAGGAGGAGGGAGGCGGGCCGGGTCCAAGCTGACGGAGTCACCTAGTGCAG,9340 fluorescence intensity (a.u.)
3,CATTGTGTGTGATTTTGCAGCTAGATTTTTAGTACGTTATCGGAGTCACCTAGTGCAG,9350 fluorescence intensity (a.u.)
4,GAAGCTGGGTTATACTTTCACCATTTTTTTACTCGATCGACGGAGTCACCTAGTGCAG,8460 fluorescence intensity (a.u.)
5,CATCCACGCTTTCCCGCATCCTTAGACTGAGTTGTATGCTCGGAGTCACCTAGTGCAG,8320 fluorescence intensity (a.u.)
6,CCTTCCAACATGTTTATTATGCATGAGATGTGTGCAACGACGGAGTCACCTAGTGCAG,8120 fluorescence intensity (a.u.)
7,CAACTTTGTTGTTGACAACTTTCCCATTTGAAATCATTTACGGAGTCACCTAGTGCAG,8500 fluorescence intensity (a.u.)
8,AGTTTCAGTGGGTGTTAGTGTGTCACCATCCATGGCAAGCCGGAGTCACCTAGTGCAG,10400 fluorescence intensity (a.u.)
9,GTGAGAGGTGGGTGGGGACGTCAGACTTACGGCGTAGGAACGGAGTCACCTAGTGCAG,9100 fluorescence intensity (a.u.)
10,CTATTTGATTCAACAGGTTTCATGTCATCTAGCTTTCTAACGGAGTCACCTAGTGCAG,10700 fluorescence intensity (a.u.)
11,GGACACTGAAGAGCATAATGGGGATGTTTGTTTCAAGAGACGGAGTCACCTAGTGCAG,9380 fluorescence intensity (a.u.)
12,TGGTGATGTGGATGTGATGTTTACATTTGCTGCTGCCTTTCGGAGTCACCTAGTGCAG,10100 fluorescence intensity (a.u.)
13,GTCCTCTGACTCATCATGTTCATCCTCTTCGTCACTTTCTCGGAGTCACCTAGTGCAG,9300 fluorescence intensity (a.u.)
14,CACTCCAACGCCGCCGCCGCCGCCGCCGCTTCGGAAGTTCCGGAGTCACCTAGTGCAG,8360 fluorescence intensity (a.u.)
15,GTTATGTACTTATGTGCCATCAAGTTTAGTTGATGTATTTCGGAGTCACCTAGTGCAG,8070 fluorescence intensity (a.u.)
16,AACCCCAAACCATGCCGAAAACACACATCTTCTACAATTTCGGAGTCACCTAGTGCAG,11200 fluorescence intensity (a.u.)
17,GACAAGAATCTCTTCCCATTTTATTTGCGAATTATTCTCACGGAGTCACCTAGTGCAG,9010 fluorescence intensity (a.u.)
18,CTCTTTCCATATATCCTGCTGTCTATATCTATACTTCATTCGGAGTCACCTAGTGCAG,9010 fluorescence intensity (a.u.)
19,CGCAACGGCGCAACACAACCACTTCGTCGTCTTCCTCTGCCGGAGTCACCTAGTGCAG,9410 fluorescence intensity (a.u.)
20,GAGCTAGATGGGTTGGGAAGTTGAGGGAGATGGTCGAGGTCGGAGTCACCTAGTGCAG,9350 fluorescence intensity (a.u.)
21,CCGGCACCACAATGAAAATCTAAGACTTTTGCCACTACACCGGAGTCACCTAGTGCAG,8320 fluorescence intensity (a.u.)

row,Sequence,binding signal
1,GGCCGGATTCTTTGGTGTTTTCTGAACCTTCTTTACTTGTCGGAGTCACCTAGTGCAG,11700 fluorescence intensity (a.u.)
2,CGAGTCCAGCACAGTCGACTGCCACCACCACCGCTGCCGCCGGAGTCACCTAGTGCAG,8890 fluorescence intensity (a.u.)
3,CTTCTTTTCACAGTGTTGCTGCTCTCTCTTCTCAACTATGCGGAGTCACCTAGTGCAG,10900 fluorescence intensity (a.u.)
4,TCCCTTGTTTCTGATCTTTCTTTCTCCTTCATCAAGGCACCGGAGTCACCTAGTGCAG,12000 fluorescence intensity (a.u.)
5,TGTTGGTGTTGCGGGCGGCGGTGCTCGGCCGTGGTGACGACGGAGTCACCTAGTGCAG,9440 fluorescence intensity (a.u.)
6,GTTTTCTCTCTTGCGGTATATTATTACACACTCACACGCTCGGAGTCACCTAGTGCAG,8690 fluorescence intensity (a.u.)
7,TTCTATCCATCTCTCCATTCATTCATCTCTCTCCATTTCCCGGAGTCACCTAGTGCAG,9490 fluorescence intensity (a.u.)
8,AACATGCATCACTCCATTTACACTTTTTACACTTTTATCACGGAGTCACCTAGTGCAG,12600 fluorescence intensity (a.u.)
9,GATTAGTGTAATACAGGCAACATTCTCATTCTCATTCTCACGGAGTCACCTAGTGCAG,8100 fluorescence intensity (a.u.)
10,TGGATAAATGTATTGTTGTATGCTGAATTTCTGGTTTGATCGGAGTCACCTAGTGCAG,9720 fluorescence intensity (a.u.)
11,CACTCACGCATCTGCCCGAACTTGATCCATCCACAGCAATCGGAGTCACCTAGTGCAG,8650 fluorescence intensity (a.u.)
12,CTCACCTCGCCGTGCCTCCTCGACGCCATCTTCCGCCGTTCGGAGTCACCTAGTGCAG,9500 fluorescence intensity (a.u.)
13,TTCCCGTGTCTTATCCACTCCCAACGTTCCATTCTGTGGACGGAGTCACCTAGTGCAG,8510 fluorescence intensity (a.u.)
14,TTTTTCCTTTCGTCACATTAATTTCTCGTTCGTATGTCCGCGGAGTCACCTAGTGCAG,11900 fluorescence intensity (a.u.)
15,TTCCCACAGCGAACGTGATGCCTCGTTTCAAAGCTGTTTTCGGAGTCACCTAGTGCAG,8150 fluorescence intensity (a.u.)
16,GCTCTCTTGGCCTTAGGTTATCATGGTACGTGTTTCCCTACGGAGTCACCTAGTGCAG,9610 fluorescence intensity (a.u.)
17,ATCTCCTCGCTTTTTGCTTCGTTCTCCGCTCCGGTGACCCCGGAGTCACCTAGTGCAG,9660 fluorescence intensity (a.u.)
18,CCTTCACCTTTCTTCTCCTCCATCCATCCAGAAAAAAAATCGGAGTCACCTAGTGCAG,8590 fluorescence intensity (a.u.)
19,ATAACGCTTTCGTCTCTCCTGACAGGATCCGGTGACACCGCGGAGTCACCTAGTGCAG,8250 fluorescence intensity (a.u.)
20,ACACACTACTACTACTCTTCTCCCTCTCCATCTCTTCCCTCGGAGTCACCTAGTGCAG,8320 fluorescence intensity (a.u.)
21,TTGTATAGTTAAGGCACCCCGTATATTTGGTTTTGTGGTTCGGAGTCACCTAGTGCAG,10400 fluorescence intensity (a.u.)

# Part of the list above, as tab-separated lines.
row	Sequence	binding signal
7	TTCTATCCATCTCTCCATTCATTCATCTCTCTCCATTTCCCGGAGTCACCTAGTGCAG	9490 fluorescence intensity (a.u.)
15	TTCCCACAGCGAACGTGATGCCTCGTTTCAAAGCTGTTTTCGGAGTCACCTAGTGCAG	8150 fluorescence intensity (a.u.)

# (continued)

row,Sequence,binding signal
1,GCATCAATTGGTTTTGGCCTACTAAGTCATGTTTACAACCCGGAGTCACCTAGTGCAG,8280 fluorescence intensity (a.u.)
2,CCTTGGTTCTCTTTCGTTGCCTGTTCTGTTCTTCCAACGCCGGAGTCACCTAGTGCAG,11800 fluorescence intensity (a.u.)
3,TGTTATTACAATATAAATGGTGCACGTTGCTCTTGTTTACCGGAGTCACCTAGTGCAG,8780 fluorescence intensity (a.u.)
4,GACCATCCAATCGTGACTCAACCTACTAACAACTGATTCCCGGAGTCACCTAGTGCAG,9380 fluorescence intensity (a.u.)
5,CGAATCAACCAACCAACACCTGCCTGATTCATCTTCTCGACGGAGTCACCTAGTGCAG,8080 fluorescence intensity (a.u.)
6,CTCGCCGCCGGCCTCCTCCACCACCACCGACGACTCCGACCGGAGTCACCTAGTGCAG,8430 fluorescence intensity (a.u.)
7,CCGCGACTACCATTTCGACTGATAGATCACCCACCGGATCCGGAGTCACCTAGTGCAG,9150 fluorescence intensity (a.u.)
8,GGGTTTACATACGGTTTTGGTTTGAATCTGTCGCAGGTCGCGGAGTCACCTAGTGCAG,8220 fluorescence intensity (a.u.)
9,CAGTCGTCGTTGCGTTGCTTCTGCTGCACTTCTCTCTCTCCGGAGTCACCTAGTGCAG,10800 fluorescence intensity (a.u.)
10,GTGTGATTTTTTTTTGCTCTAATTAATGTGATAAATTTTCCGGAGTCACCTAGTGCAG,10600 fluorescence intensity (a.u.)
11,ATTTAGGGGTGTGTGTGTGGTGTATCTTCATTCTTCAATGCGGAGTCACCTAGTGCAG,10200 fluorescence intensity (a.u.)
12,TCACTCTTTTTCTTACCTGCTCGATCGTAGTTATTTAATTCGGAGTCACCTAGTGCAG,11900 fluorescence intensity (a.u.)
13,CCTGACCATCCATCCGTTCCTCCGATCAGTTCCAACTTCCCGGAGTCACCTAGTGCAG,8640 fluorescence intensity (a.u.)
14,GATTCCTGCCTTGATTAGCATGTCACACATCGATGTCAGCCGGAGTCACCTAGTGCAG,8860 fluorescence intensity (a.u.)
15,GCCAGCAATTTTGCTCTTATTATCTTTTCACCTGCCGTGACGGAGTCACCTAGTGCAG,10300 fluorescence intensity (a.u.)
16,TTCCCTGCTCCTGTCTCCACCGTTCTACTCGCCTCGAAAGCGGAGTCACCTAGTGCAG,10600 fluorescence intensity (a.u.)
17,GGACGGATATGTTGTGTGTGAAGCTCTGGTTGGCCATTTGCGGAGTCACCTAGTGCAG,8670 fluorescence intensity (a.u.)
18,CCACTTGCAGCGTTCGAACCACCGAGGTTGACCAGGCCCCCGGAGTCACCTAGTGCAG,9670 fluorescence intensity (a.u.)
19,CCTATTCAACGATCTCCTCCGATTATCCAAATCAACATAACGGAGTCACCTAGTGCAG,8410 fluorescence intensity (a.u.)
20,ATTTTGGGACAGAGGTAGCAGTGAACTACACGTACCTTGTCGGAGTCACCTAGTGCAG,21500 fluorescence intensity (a.u.)
21,TCTATGGTAGTCCAAAGAGTCCACAGCCCACACTCACTCTCGGAGTCACCTAGTGCAG,8160 fluorescence intensity (a.u.)

# Part of the list above in a different format.
row	Sequence	binding signal
1	GCATCAATTGGTTTTGGCCTACTAAGTCATGTTTACAACCCGGAGTCACCTAGTGCAG	8280 fluorescence intensity (a.u.)
11	ATTTAGGGGTGTGTGTGTGGTGTATCTTCATTCTTCAATGCGGAGTCACCTAGTGCAG	10200 fluorescence intensity (a.u.)

# Next entries follow:

row,Sequence,binding signal
1,TGGGCTAGAGCTAGGGTTTTGTTTGGTGGCTAGGGTTCTTCGGAGTCACCTAGTGCAG,8410 fluorescence intensity (a.u.)
2,ACTTTCGTCTGTTTGCTAGTGTGGGTATTGATTTGCTCCACGGAGTCACCTAGTGCAG,12000 fluorescence intensity (a.u.)
3,GCTGTTTATTTATATTTATTTATTGTGTATTTGATATCCACGGAGTCACCTAGTGCAG,11200 fluorescence intensity (a.u.)
4,GATCTCTATGCATTTTTCACTTGTGTCCACACAAATACTTCGGAGTCACCTAGTGCAG,8730 fluorescence intensity (a.u.)
5,GGGGTGAGTTGAGAACATAAGACAGATGCTTTCCGAAAGACGGAGTCACCTAGTGCAG,8730 fluorescence intensity (a.u.)
6,TAATCACTCATACACGCGTCTGTGTCATGGCTGATGTCAGCGGAGTCACCTAGTGCAG,8270 fluorescence intensity (a.u.)
7,CTCCGCTGGACCAACTACCTCCGCCCCGACATCCGCCGCGCGGAGTCACCTAGTGCAG,10000 fluorescence intensity (a.u.)
8,CCATTTCGCATCTCTCTCAGCCTCACCGTCGTCGCCTCCCCGGAGTCACCTAGTGCAG,8840 fluorescence intensity (a.u.)
9,TCTATGTAGGGTTTATCAATACTCGGCATATGATTCATACCGGAGTCACCTAGTGCAG,8710 fluorescence intensity (a.u.)
10,GCGGCGGGTGCGGCATGTGGAACGGGTGGGCGTCGGGCGCCGGAGTCACCTAGTGCAG,8110 fluorescence intensity (a.u.)
11,TTTACCGATATTTCTAATATCATTTCCATTTTCGGCTTATCGGAGTCACCTAGTGCAG,10000 fluorescence intensity (a.u.)
12,TCCGGCGCCTTACTGGTCATCACCAACTCACTGCTCCTCTCGGAGTCACCTAGTGCAG,8670 fluorescence intensity (a.u.)
13,ATCCTTTTTTTTTAGCATGATGCAGCATATGCTTGACCTTCGGAGTCACCTAGTGCAG,8130 fluorescence intensity (a.u.)
14,AAGCATATACTGCCCTTTGCAGTTTCTTCTCAGCCGTTCTCGGAGTCACCTAGTGCAG,8280 fluorescence intensity (a.u.)
15,CTGGTTCTTGATTATTATTAGGATTAGTTTGTTCCTTTGTCGGAGTCACCTAGTGCAG,8450 fluorescence intensity (a.u.)
16,TAGTTTTTTTTATTCTACCCTCAACTATCCTTGCACATCTCGGAGTCACCTAGTGCAG,9690 fluorescence intensity (a.u.)
17,TTAATTCGTTTTTACCTTGACTATTTTTTCTTTCTTGTTGCGGAGTCACCTAGTGCAG,8340 fluorescence intensity (a.u.)
18,TATTAGTGGTATATATCCCTATCAGTCATTCTGCTTGCTTCGGAGTCACCTAGTGCAG,9260 fluorescence intensity (a.u.)
19,GCCACCAAATTCCCAACCCTTTTTCTGTTCAGATTCTTGGCGGAGTCACCTAGTGCAG,8890 fluorescence intensity (a.u.)
20,CTCCACCACCGCTAGATTCGCTCACATCGCCGCCATTACTCGGAGTCACCTAGTGCAG,9750 fluorescence intensity (a.u.)
21,TTGCTGACAGCTAGCTACACACTGCCTTTGTTATATTACCCGGAGTCACCTAGTGCAG,8240 fluorescence intensity (a.u.)

# Exported tab-delimited: entries from further up
row	Sequence	binding signal
20	CTCCACCACCGCTAGATTCGCTCACATCGCCGCCATTACTCGGAGTCACCTAGTGCAG	9750 fluorescence intensity (a.u.)
21	TTGCTGACAGCTAGCTACACACTGCCTTTGTTATATTACCCGGAGTCACCTAGTGCAG	8240 fluorescence intensity (a.u.)
